In patent US5541208A, “Indole diterpene alkaloid compounds” (priority 1994, dated 1996):
Structures were worked out from names or drawings and are uncertain.

Sequences of proteins named here, by UniProt entry; tags and fusion partners are left off.
UniProt Q28204, whole entry: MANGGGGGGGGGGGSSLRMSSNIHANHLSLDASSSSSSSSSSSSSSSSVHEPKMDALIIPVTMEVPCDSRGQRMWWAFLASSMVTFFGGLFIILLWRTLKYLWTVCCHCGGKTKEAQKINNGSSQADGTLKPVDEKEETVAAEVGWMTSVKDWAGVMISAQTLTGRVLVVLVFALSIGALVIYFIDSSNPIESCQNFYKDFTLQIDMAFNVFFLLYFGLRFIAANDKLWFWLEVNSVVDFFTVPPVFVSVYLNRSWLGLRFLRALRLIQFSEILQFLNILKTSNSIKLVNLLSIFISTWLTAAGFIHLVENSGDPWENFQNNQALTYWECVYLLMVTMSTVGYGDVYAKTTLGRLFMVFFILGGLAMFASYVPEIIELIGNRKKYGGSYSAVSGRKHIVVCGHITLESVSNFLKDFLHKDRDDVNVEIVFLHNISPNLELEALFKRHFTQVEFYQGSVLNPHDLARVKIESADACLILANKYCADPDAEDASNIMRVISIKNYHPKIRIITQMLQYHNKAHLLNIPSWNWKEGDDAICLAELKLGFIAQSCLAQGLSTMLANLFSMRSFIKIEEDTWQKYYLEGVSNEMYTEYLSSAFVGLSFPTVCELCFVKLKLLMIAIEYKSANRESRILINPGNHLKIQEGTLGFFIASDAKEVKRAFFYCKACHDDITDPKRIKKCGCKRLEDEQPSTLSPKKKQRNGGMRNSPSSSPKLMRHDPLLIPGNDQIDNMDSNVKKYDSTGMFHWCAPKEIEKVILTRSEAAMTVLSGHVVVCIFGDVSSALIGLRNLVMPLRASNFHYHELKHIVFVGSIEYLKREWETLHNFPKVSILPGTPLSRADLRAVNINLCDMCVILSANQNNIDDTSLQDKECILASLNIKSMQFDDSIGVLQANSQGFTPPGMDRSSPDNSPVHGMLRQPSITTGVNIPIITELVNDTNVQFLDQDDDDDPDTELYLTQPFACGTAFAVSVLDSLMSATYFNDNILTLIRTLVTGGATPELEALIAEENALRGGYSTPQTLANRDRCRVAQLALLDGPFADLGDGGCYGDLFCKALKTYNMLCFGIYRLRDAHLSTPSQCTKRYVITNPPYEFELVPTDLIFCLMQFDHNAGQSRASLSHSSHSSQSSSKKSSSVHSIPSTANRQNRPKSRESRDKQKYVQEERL
UniProt Q28067, whole entry partner: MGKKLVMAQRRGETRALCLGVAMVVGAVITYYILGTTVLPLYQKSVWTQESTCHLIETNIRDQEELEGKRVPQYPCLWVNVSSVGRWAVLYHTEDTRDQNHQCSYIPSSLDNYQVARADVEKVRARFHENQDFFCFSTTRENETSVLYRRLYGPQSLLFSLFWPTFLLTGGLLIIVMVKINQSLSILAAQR

Experiments:
[1] = target: bovine aortic sarcolemma membrane vesicles ([^125 I]ChTX receptor) (Bos taurus, UniProt Q28204); experiment: [^125 I]ChTX binding assay with aortic sarcolemma membrane vesicles; conditions: 10 μM
Procedure: The interaction of [^125 I]ChTX with bovine aortic s sarcolemma membrane vesicles was determined under conditions as described (Vazquez et al., 1989, J. Biol. Chem. 264, 20902-20909). Briefly, sarcolemma membrane vesicles were incubated in 12×75 polystyrene tubes with ca. 25 pM [^125 I]ChTX (2200 Ci/mmol), in the absence or presence of test compound, in a media consisting of 20 mM NaCl, 20 mM Tris-HCl pH 7.4, 0.1% bovine serum albumin, 0.1% digitonin. Nonspecific binding was determined in the presence of 10 nM ChTX. Incubations were carried out at room temperature until ligand binding equilibrium is achieved at ca. 90 min. At the end of the incubation period, samples were diluted with 4 mL ice-cold 100 mM NaCl, 20 mM Hepes-Tris pH 7.4 and filtered through GF/C glass fiber filters that have been presoaked in 0.5% polyethylenimine. Filters were rinsed twice with 4 mL ice-cold quench solution. Radioactivity associated with filters was determined in a gamma counter. Specific binding data in the presence of each compound (difference between total binding and nonspecific binding) was assessed relative to an untreated control.

[2] = target: maxi-K channels from bovine aortic smooth muscle (Bos taurus, UniProt Q28204); experiment: Patch clamp recording of maxi-K channel currents in excised inside-out membrane patches; format: biochemical
From the text: Patch clamp recordings of currents flowing through large-conductance calcium-activated potassium (maxi-K) channels were made from membrane patches excised from cultured bovine aortic smooth muscle cells using conventional techniques (Hamill et al., 1981, Pflugers Archiv. 391, 85-100) at room temperature. Glass capillary tubing (Gamer #7052) was pulled in two stages to yield micropipettes with tip diameters of approximately 1-2 microns. Pipettes were typically filled with solutions containing (mM): 150 KCl, 10 Hepes (4-(2-hydroxyethyl)-1-piperazine ethanesulfonic acid), 1 Mg, 0.01 Ca, and adjusted to pH 7.20 with 3.7 mM KOH. After forming a high resistance (>10^9 ohms) seal between the sarcolemmal membrane and the pipette, the pipette was withdrawn from the cell, forming an excised inside-out membrane patch. The patch was excised into a bath solution containing (mM): 150 KCl, 10 Hepes, 5 EGTA (ethylene glycol bis(13-aminoethyl ether)-N,N,N',N'-tetraacetic acid), sufficient Ca to yield a free Ca concentration of 1-5 μM, and the pH was adjusted to 7.2 with 10.5 KOH. For example, 4.568 mM Ca was added to give a free concentration of 2 μM at 22 ° C. An AXOPATCH 1C amplifier (Axon Instruments, Foster City, Calif.) with a CV-4 headstage was used to control the voltage and to measure the currents flowing across the membrane patch. The input to the headstage was connected to the pipette solution with a Ag/AgCl wire, and the amplifier ground was connected to the bath solution with a Ag/AgCl wire covered with a tube filled with agar dissolved in 0.2M KCl. Maxi-K channels were identified by their large single channel conductance (~250 pS) and sensitivity of channel open probability to membrane potential and intracellular calcium concentration.
Data were stored on a RACAL STORE 4DS FM tape recorder (Racal Recorders, Vienna, Va.) or on digital video tape using a video casette recorder after digitizing the signal with VR-10 (Instrutech Corp., Belmont N.Y.) PCM video encoder. The signal was also recorded on chart paper with a GOULD 2400S chart recorder (Gould Inc., Cleveland Ohio). For quantitative analysis, the data was played into a DEC11-73 (Digital Equipment Corp., Maynard, Mass.) after digitization with a DT2782-8D1A analogue to digital converter (Data Translation Inc., Marlboro, Mass.), or played into a Mac IIx or Quadra 700 computer (Apple Computers) after digitization with an ITC-16 interface (Instrutech Corp., Belmont, N.Y.).

Compound: CC(C)=CCOC(C)(C)[C@H]1O[C@H]2CC[C@]3(C)[C@@]4(C)c5[nH]c6ccc(CC=C(C)C)cc6c5C[C@@H]4CC[C@@]3(O)C23OC3[C@@H]1O (stereo partly drawn)
- inhibition of [^125 I]ChTX binding [1]: 2%
- block of maxi-K channels / channel activity ([2]; 10 nM): blocked a small fraction of channel activity
- block of channel activity ([2]; 100 nM): blocked approximately one half of the channel activity
- block of channel activity ([2]; 1 μM): blocked nearly all of the channel activity
- block of maxi-K channels relative to Compound C ([2]; compared with Compound C): weaker blockers of maxi-K channels than Compound C
- IC50 ([2]; read-out: 50% CHANNEL BLOCK, table of Example 4): 100 nM
